Earlier results as cited in patent US20190008973A1, “INTRALIPID-IODINE FOR IMAGING” (priority 2017, published 2019).
Like-named read-outs stand apart in the source and are kept apart here.

Settings: cited from earlier work

Compound: CCN(CC)CC(=O)Nc1c(C)cccc1C [lidocaine]
- mean un-entrapped lidocaine AUC 0 to 30 min (during Ringer infusion): 21.3 mg·min/L
- mean un-entrapped lidocaine AUC 0 to 30 min (during lipid infusion): 16.4 mg·min/L
